Patent publication US20090123940A1, “MOLECULES INVOLVED IN SYNAPTOGENESIS AND USES THEREFOR” (THE JOHNS HOPKINS UNIVERSITY, priority 2007, published 2009)
These are yes or no findings as the source states them, for the method shown. For some assays here: In cells and extracts the contact can be indirect. Some results given as binding are weak or reduced against the parent protein; the word gives no strength. For some assays here: Tags and fused reporters may be left off the sequences shown. Each block holds one binder with its values, some of them ahead of it.

Protein sequences, listed by entry. Tags and fused reporters are not part of them. Lines headed by an entry give the natural chain unless they say otherwise; changes in a name come on top. Chains listed by the source or under a name are the forms on record and can include a tag or linker. Residues count along the entry.
GluR1-HA (HA tagged GluR1 of Example 10) (P42261, residues 19-906): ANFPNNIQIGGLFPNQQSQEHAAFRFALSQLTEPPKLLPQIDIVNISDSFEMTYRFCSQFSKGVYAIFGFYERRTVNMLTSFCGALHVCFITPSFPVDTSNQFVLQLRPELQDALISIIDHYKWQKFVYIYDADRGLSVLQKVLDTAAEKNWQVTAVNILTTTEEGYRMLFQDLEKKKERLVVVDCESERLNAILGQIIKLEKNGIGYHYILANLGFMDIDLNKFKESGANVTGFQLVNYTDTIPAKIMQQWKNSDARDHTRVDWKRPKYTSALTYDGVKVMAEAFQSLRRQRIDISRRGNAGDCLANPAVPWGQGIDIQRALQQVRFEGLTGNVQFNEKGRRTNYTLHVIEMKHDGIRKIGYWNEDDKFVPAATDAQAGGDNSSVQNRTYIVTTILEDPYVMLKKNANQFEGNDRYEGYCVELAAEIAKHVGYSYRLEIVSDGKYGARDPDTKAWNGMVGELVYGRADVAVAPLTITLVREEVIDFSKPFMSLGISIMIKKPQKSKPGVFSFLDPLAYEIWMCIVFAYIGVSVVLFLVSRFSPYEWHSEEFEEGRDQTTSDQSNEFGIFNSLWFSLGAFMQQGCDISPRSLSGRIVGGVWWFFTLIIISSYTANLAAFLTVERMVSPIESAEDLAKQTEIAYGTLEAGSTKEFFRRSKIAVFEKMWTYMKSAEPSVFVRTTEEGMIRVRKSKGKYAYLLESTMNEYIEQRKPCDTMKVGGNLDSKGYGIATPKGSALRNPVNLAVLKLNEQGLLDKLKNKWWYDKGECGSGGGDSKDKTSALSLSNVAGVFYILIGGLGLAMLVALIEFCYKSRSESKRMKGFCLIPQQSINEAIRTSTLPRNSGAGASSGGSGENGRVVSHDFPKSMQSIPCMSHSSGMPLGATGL
HA-GluR1ΔNAR2 (HA-GluR1 construct lacking NAR2) (P42261, form named): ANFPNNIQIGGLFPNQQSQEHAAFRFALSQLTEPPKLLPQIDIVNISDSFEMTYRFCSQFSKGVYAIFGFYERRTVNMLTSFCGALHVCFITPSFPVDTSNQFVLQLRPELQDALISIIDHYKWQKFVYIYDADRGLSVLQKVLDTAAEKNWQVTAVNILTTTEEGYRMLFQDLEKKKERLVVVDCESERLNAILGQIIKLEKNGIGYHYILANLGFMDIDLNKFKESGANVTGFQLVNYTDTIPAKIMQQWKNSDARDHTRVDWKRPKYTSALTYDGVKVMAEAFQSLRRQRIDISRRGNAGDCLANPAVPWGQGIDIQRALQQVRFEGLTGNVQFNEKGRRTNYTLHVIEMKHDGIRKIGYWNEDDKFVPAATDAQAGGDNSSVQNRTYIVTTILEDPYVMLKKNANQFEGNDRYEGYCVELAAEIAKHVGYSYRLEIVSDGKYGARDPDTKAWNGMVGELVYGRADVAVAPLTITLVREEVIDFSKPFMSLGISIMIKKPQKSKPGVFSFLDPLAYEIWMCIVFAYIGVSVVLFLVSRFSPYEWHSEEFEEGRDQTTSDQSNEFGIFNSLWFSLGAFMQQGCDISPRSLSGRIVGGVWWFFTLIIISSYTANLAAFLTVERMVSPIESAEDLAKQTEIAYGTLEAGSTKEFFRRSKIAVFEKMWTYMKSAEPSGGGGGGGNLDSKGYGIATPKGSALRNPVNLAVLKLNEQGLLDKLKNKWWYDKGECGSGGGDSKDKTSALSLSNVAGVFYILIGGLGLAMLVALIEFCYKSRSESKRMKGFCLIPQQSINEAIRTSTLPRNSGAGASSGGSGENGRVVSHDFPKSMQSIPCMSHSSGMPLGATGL
UniProt P19491, residues 22-883: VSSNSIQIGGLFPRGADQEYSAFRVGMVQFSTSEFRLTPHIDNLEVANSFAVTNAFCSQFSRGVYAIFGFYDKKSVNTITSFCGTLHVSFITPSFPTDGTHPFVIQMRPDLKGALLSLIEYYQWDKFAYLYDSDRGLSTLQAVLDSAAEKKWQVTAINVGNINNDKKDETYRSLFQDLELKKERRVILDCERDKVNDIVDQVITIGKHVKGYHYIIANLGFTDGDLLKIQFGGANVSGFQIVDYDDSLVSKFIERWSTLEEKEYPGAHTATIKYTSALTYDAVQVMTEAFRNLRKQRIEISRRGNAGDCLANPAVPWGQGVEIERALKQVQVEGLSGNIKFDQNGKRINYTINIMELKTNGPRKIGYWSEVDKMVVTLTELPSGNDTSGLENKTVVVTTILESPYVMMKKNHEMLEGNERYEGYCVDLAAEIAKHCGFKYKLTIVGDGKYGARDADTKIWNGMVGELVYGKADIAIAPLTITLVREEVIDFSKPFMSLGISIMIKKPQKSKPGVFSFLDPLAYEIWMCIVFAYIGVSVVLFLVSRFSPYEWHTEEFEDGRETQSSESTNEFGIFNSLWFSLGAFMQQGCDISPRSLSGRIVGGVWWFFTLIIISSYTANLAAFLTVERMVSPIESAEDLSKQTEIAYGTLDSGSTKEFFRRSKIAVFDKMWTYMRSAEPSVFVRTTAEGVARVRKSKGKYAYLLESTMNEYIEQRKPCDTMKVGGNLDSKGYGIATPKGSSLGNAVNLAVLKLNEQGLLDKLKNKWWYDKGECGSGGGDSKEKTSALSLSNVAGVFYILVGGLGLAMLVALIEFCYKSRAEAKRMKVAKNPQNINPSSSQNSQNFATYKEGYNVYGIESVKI
HA-GluR6+NAR1 (HA-GluR6 construct in which the corresponding GluR6 sequence has been replaced with NAR1) (P42260, form named): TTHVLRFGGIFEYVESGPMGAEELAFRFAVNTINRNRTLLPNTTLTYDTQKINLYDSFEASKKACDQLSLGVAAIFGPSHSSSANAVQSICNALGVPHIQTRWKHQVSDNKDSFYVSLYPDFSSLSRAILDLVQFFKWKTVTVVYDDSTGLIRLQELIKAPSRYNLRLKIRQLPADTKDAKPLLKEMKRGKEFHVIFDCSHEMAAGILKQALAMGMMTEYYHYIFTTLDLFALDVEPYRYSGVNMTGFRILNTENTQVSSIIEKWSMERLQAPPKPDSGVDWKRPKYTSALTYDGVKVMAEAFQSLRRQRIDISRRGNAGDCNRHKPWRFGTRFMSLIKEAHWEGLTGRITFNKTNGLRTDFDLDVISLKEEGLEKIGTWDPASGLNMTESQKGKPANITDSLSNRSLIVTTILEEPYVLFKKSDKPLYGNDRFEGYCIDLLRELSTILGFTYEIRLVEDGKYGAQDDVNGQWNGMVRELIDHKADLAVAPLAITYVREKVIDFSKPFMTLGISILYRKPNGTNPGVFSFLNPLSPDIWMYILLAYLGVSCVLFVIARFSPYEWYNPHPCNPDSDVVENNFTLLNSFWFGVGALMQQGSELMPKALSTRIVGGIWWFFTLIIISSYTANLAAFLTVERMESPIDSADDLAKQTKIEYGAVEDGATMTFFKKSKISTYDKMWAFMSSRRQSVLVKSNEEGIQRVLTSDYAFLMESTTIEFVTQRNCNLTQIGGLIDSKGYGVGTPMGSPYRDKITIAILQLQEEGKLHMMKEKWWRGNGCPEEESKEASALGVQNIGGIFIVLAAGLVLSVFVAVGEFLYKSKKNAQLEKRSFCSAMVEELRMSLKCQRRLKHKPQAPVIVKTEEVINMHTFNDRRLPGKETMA
UniProt P19492, residues 23-888: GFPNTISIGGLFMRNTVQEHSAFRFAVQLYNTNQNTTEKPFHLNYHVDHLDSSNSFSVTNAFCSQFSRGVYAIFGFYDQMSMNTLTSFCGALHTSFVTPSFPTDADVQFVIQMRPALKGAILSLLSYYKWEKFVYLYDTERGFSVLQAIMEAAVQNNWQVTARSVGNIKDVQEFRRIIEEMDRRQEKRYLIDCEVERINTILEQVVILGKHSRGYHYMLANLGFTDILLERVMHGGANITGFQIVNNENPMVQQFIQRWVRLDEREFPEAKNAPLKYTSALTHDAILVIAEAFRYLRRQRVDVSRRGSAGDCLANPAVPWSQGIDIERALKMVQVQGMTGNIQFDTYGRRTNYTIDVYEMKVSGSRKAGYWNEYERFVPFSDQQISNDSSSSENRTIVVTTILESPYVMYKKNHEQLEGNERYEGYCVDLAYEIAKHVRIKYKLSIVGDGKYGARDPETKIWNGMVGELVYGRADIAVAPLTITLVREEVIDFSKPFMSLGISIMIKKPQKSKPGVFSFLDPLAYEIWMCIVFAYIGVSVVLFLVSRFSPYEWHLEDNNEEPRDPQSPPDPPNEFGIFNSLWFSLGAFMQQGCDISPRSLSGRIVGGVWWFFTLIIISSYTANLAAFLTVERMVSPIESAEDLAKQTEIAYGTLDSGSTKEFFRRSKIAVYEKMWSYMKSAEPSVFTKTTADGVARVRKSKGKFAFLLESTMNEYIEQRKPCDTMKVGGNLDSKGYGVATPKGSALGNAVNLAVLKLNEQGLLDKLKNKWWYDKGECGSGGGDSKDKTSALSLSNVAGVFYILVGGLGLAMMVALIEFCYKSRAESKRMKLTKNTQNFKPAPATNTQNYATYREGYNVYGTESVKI
UniProt P19490: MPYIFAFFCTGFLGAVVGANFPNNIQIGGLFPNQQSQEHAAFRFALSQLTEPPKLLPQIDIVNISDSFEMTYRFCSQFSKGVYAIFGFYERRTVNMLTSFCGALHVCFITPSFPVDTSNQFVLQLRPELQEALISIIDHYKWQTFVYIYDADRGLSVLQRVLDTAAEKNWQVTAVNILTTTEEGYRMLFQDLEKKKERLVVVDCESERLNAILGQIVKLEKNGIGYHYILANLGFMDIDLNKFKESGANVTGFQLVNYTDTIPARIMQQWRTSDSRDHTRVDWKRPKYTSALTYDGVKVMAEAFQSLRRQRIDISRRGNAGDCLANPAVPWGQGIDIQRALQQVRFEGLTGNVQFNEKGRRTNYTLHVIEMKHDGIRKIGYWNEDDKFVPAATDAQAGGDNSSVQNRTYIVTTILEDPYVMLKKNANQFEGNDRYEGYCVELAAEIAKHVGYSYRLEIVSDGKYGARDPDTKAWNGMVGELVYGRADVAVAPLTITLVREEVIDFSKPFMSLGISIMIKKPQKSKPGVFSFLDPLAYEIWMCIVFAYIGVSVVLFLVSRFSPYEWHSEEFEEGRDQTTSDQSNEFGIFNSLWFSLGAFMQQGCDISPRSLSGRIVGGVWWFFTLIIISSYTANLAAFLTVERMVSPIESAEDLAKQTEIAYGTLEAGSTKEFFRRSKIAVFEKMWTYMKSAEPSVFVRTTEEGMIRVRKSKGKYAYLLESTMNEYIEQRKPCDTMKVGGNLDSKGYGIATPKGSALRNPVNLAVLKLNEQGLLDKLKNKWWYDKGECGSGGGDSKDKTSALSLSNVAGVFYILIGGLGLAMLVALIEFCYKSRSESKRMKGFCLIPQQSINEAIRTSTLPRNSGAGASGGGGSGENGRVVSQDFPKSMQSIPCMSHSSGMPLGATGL

Assays:
[1] = biological target: GluR1-HA (HA tagged GluR1 of Example 10) (UniProt P42261); experiment: co-IP from co-transfected HEK293T cells
GluR2-HA = GluR2-HA (UniProt P19491); experiment: co-clustering on COS-7 cells co-transfected with NPR-myc and GluR2-HA after PMA (150 nM); diffuse staining without PMA
[2] = biological target: HA-GluR6+NAR1 (HA-GluR6 construct in which the corresponding GluR6 sequence has been replaced with NAR1) (UniProt P42260); experiment: co-IP
[3] = biological target: HA-GluR1ΔNAR2 (HA-GluR1 construct lacking NAR2) (UniProt P42261); experiment: co-clustering on the cell surface, immunostaining
[4] = biological target: HA-GluR6+NAR1 (HA-GluR6 construct in which the corresponding GluR6 sequence has been replaced with NAR1) (UniProt P42260); experiment: co-clustering on the cell surface, immunostaining
[5] = biological target: AMPA receptor subunit GluR2 (UniProt P19491); experiment: co-clustering in co-transfected 293 cells, immunostaining
[6] = biological target: AMPA receptor subunit GluR3 (UniProt P19492); experiment: as above
[7] = biological target: AMPA receptor subunit GluR2 (UniProt P19491); experiment: co-IP from co-transfected HEK-293 cells; unaffected by 1 mM tunicamycin
[8] = biological target: AMPA receptor subunit GluR3 (UniProt P19492); experiment: as above
[9] = biological target: T1, GST-tagged GluR1-12mer (GST-G1-12mer); experiment: GST pull-down, in vitro binding
T1 sequence: LRRQRIDISRRG

[10] = biological target: GST-NAR2 (GST fusion protein of NAR2 of GluR1, from bacteria) (Rattus norvegicus (Rat)) (UniProt P19490); experiment: GST pull-down, comparison in words
[11] = biological target: GST-NAR1 (GST fusion protein of NAR1 of GluR1, from bacteria) (Rattus norvegicus (Rat)) (UniProt P19490); experiment: GST pull-down; NAR1 bound Narp more avidly than NAR2
[12] = biological target: GST-NAR2 (GST fusion protein of NAR2 of GluR1, from bacteria) (Rattus norvegicus (Rat)) (UniProt P19490); experiment: as above
[13] = biological target: AMPA receptor subunit GluR2 (UniProt P19491); experiment: co-clustering on transfected COS-7 cells

B3: C-terminal myc-tagged version of Narp (myc-Narp) (ligand, not shown: small tags and cut ends)
chain: QAQDNPIPGSRFVCTALPPEAARAGCPLPAMPMQGGALSPEEELRAAVLHWRETVVQQKETLGAQREAIRELTSKLARCEGLAGGKARGTGATGKDTMGDLPRDPGHVVEQLSRSLQTLKDRLESLELQLHTNASNAGLPSDFREVLQRRLGELERQLLRKVAELEDEKSLLHNETSAHRQKTENTLNALLQRVTELERGNSAFKSPDAFKVSLPLRTNYLYGKIKKTLPELYAFTICLWLRSSASPGIGTPFSYAVPGQANEIVLIEWGNNPIELLINDKVAQLPLFVSDGKWHHICITWTTRDGMWEAFQDGEKLGTGENLAPWHPIKPGGVLILGQEQDTVGGRFDATQAFVGELSQFNIWDRVLRAQEIINIANCSTNMPGNIIPWVDNNVDVFGGASKWPVETCEERLLDL
binding [9]: binds
binding [10]: binds
binding [11]: binds
binding [12]: binds

B4: CM-3, Narp/NPR chimera in which the transmembrane domain of NPR is replaced with the signal peptide of Narp (protein, rat, UniProt O35764 24-494, looked up, not shown: small tags and cut ends)
chain: ASVPLAASPARALPGGTDNASAASAAGAPGPQRSLSALQGAGGSAGPSVLPGEPAASVFPPPPGPLLSRFLCTPLAAACPSGAEQGDAAGERAELLLLQSTAEQLRQTALQQEARIRADRDTIRELTGKLGRCESGLPRGLQDAGPRRDTMADGAWDSPALLVELENAVRALRDRIERIEQELPARGNLSSSAPAPAVPTALHSKMDELEGQLLAKVLALEKERAALSHGSHQQRQEVEKELDALQGRVAELEHGSSAYSPPDAFKVSIPIRNNYMYARVRKAVPELYAFTACMWLRSRSGGSGQGTPFSYSVPGQANEIVLLEAGLEPMELLINDKVAQLPLSLKDSNWHHICIAWTTRDGLWSAYQDGELRGSGENLAAWHPIKPHGILILGQEQDTLGGRFDATQAFVGDIAQFNLWDHALTPAQVLGIANCTGPLMGNVLPWEDKLVEAFGGAKKAAFDVCKRRAKA
binding [13]: binds

Now from value to binder:

binding [1]: binds
binding (GluR2-HA): binds
B1: myc-tagged NPR (NPR-myc) (receptor, rat, UniProt O35764 1-494, looked up, not shown: small tags and cut ends)
chain: MKFLAVLLAAGMLAFLGAVICIIASVPLAASPARALPGGTDNASAASAAGAPGPQRSLSALQGAGGSAGPSVLPGEPAASVFPPPPGPLLSRFLCTPLAAACPSGAEQGDAAGERAELLLLQSTAEQLRQTALQQEARIRADRDTIRELTGKLGRCESGLPRGLQDAGPRRDTMADGAWDSPALLVELENAVRALRDRIERIEQELPARGNLSSSAPAPAVPTALHSKMDELEGQLLAKVLALEKERAALSHGSHQQRQEVEKELDALQGRVAELEHGSSAYSPPDAFKVSIPIRNNYMYARVRKAVPELYAFTACMWLRSRSGGSGQGTPFSYSVPGQANEIVLLEAGLEPMELLINDKVAQLPLSLKDSNWHHICIAWTTRDGLWSAYQDGELRGSGENLAAWHPIKPHGILILGQEQDTLGGRFDATQAFVGDIAQFNLWDHALTPAQVLGIANCTGPLMGNVLPWEDKLVEAFGGAKKAAFDVCKRRAKA

binding [2]: binds
binding [3]: binds
binding [4]: binds
binding [5]: binds
binding [6]: binds
binding [7]: binds
binding [8]: binds
B2: Neuronal activity regulated pentraxin (Narp) (ligand)
chain: QAQDNPIPGSRFVCTALPPEAARAGCPLPAMPMQGGALSPEEELRAAVLHWRETVVQQKETLGAQREAIRELTSKLARCEGLAGGKARGTGATGKDTMGDLPRDPGHVVEQLSRSLQTLKDRLESLELQLHTNASNAGLPSDFREVLQRRLGELERQLLRKVAELEDEKSLLHNETSAHRQKTENTLNALLQRVTELERGNSAFKSPDAFKVSLPLRTNYLYGKIKKTLPELYAFTICLWLRSSASPGIGTPFSYAVPGQANEIVLIEWGNNPIELLINDKVAQLPLFVSDGKWHHICITWTTRDGMWEAFQDGEKLGTGENLAPWHPIKPGGVLILGQEQDTVGGRFDATQAFVGELSQFNIWDRVLRAQEIINIANCSTNMPGNIIPWVDNNVDVFGGASKWPVETCEERLLDL
